Assay results from PMC7819943, “Rice protein-binding microarrays: a tool to detect cis-acting elements near promoter regions in rice”.
The other results are listed elsewhere or left out.

Each sequence was assayed against T1, OsSMF1 (Oryza sativa, UniProt Q6ZLB0 1-436) (assay: protein-binding microarray (RPBM); PBS, 2% BSA, 51.3 ng/ul salmon testes DNA, 50 uM zinc acetate, 200 nM TF, 25 C, 1 h; high values mean tight binding). Conditions: protein: recombinant; tags: N-terminal polyhistidine and DsRed monomer fusion (pET32a); chain copies: 2; label: CyDye5-dUTP incorporated in the synthesized complementary strand; 3' TTTTT single-stranded linker to array surface; dsDNA, one strand shown.
T1 sequence: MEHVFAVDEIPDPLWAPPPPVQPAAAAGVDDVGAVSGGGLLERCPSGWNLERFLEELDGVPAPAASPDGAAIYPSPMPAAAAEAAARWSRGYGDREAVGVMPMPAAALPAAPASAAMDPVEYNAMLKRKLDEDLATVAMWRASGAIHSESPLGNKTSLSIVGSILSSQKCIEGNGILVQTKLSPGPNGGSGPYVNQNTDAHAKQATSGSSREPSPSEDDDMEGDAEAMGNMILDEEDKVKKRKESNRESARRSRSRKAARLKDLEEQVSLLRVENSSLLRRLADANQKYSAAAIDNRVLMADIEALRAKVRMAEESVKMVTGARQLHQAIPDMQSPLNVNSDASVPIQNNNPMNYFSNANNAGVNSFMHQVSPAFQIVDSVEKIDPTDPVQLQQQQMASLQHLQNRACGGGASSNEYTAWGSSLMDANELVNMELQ
Procedure, shortened: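 Per-feature fluorescence intensity (arbitrary units), read on an Axon 4000B scanner, is the binding signal. Transcription factors carrying an N-terminal polyhistidine tag and DsRed fusion were expressed in E. coli BL21-CodonPlus and purified on Ni–NTA. A custom Agilent array, made double-stranded by primer extension with Cy5-dUTP and blocked with 2% BSA, was incubated with 200 nM protein in PBS, 2% BSA, salmon testes DNA and 50 µM zinc acetate at 25 °C for 1 h and then washed.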

Sequence | binding signal
ACATCCCGTCCATTGCTCCTAGCACACGCATGCGTCGCCACGGAGTCACCTAGTGCAG | 3490 fluorescence intensity (a.u.)
GCACGGGAAACTAAGCTGCAGTGACCACCCACGTGCCGTGCGGAGTCACCTAGTGCAG | 6660 fluorescence intensity (a.u.)
TCTATCATAACTATCCTCCCAATCTCGACATTACATCATCCGGAGTCACCTAGTGCAG | 3970 fluorescence intensity (a.u.)
CCCGACTCCTAACTGCCCACTCCGATTTGACGCCATCTGCCGGAGTCACCTAGTGCAG | 3700 fluorescence intensity (a.u.)
TGTACCTGCAACCACAGTTTAGCACATTCTAATTCGAAATCGGAGTCACCTAGTGCAG | 4630 fluorescence intensity (a.u.)
CATGTCTTCCGCCGCCGTTGCCAGATGACACGGCAGCCACCGGAGTCACCTAGTGCAG | 4820 fluorescence intensity (a.u.)
TTGTTAATCACAACACCAGGTACATCGTCAAGTTCAACTTCGGAGTCACCTAGTGCAG | 30700 fluorescence intensity (a.u.)
AGGTTGGAATCGACGTTTCGTCGTAGCCGTCCATAGGAAACGGAGTCACCTAGTGCAG | 31100 fluorescence intensity (a.u.)
TCTTGCCAGTGTGCCATGTGTAATGTTGTTCAGTGAAATGCGGAGTCACCTAGTGCAG | 4010 fluorescence intensity (a.u.)
GCGCAGGACGTGGGCGGTGGAGTCCCGGGGATACGTGTAGCGGAGTCACCTAGTGCAG | 4130 fluorescence intensity (a.u.)
GCGCAAGTTCTCCACAAGCCACCTCGATCGATCTCCATTGCGGAGTCACCTAGTGCAG | 3420 fluorescence intensity (a.u.)
CCTCACCATTCGAGCTGGACGTGGTGAGTGACGTGGTTGACGGAGTCACCTAGTGCAG | 15100 fluorescence intensity (a.u.)
CCGCTTCTCCGGAAACTAGCCGTTGGGGCGCCGCCGCCGCCGGAGTCACCTAGTGCAG | 27200 fluorescence intensity (a.u.)
ACAAGCCACGTAGGCGCCACGTCAGCCAAAACCGCCTTCACGGAGTCACCTAGTGCAG | 44100 fluorescence intensity (a.u.)
TCGTGGATGTGAGGTTGCCGGCTATTGCCGTCATCACTGACGGAGTCACCTAGTGCAG | 3160 fluorescence intensity (a.u.)
CGTACCGTTCGGATCTGGTCATCGTGTACGGAGGAGGAAACGGAGTCACCTAGTGCAG | 3760 fluorescence intensity (a.u.)
CCCTTACTGATTGGACGGTCCCGCGCATAAGCATGCGCACCGGAGTCACCTAGTGCAG | 18600 fluorescence intensity (a.u.)
GTGGGAGAGGCCGGCCGAGGGGAGGAGAGGGGAGGGGTGCCGGAGTCACCTAGTGCAG | 4960 fluorescence intensity (a.u.)
CCCCGCCGGAATCCGCGGCGAGCGGCGAGCGTCCCGAGCCCGGAGTCACCTAGTGCAG | 3400 fluorescence intensity (a.u.)
CACAGATATTAGTGACGGTGGATAGTTTTGTAAAATTCTGCGGAGTCACCTAGTGCAG | 4630 fluorescence intensity (a.u.)
GTAGTACTACAACTCTACAAGCCACAGACAGGAAACAGGACGGAGTCACCTAGTGCAG | 3880 fluorescence intensity (a.u.)

Given with each value named: part of the list above
GCACGGGAAACTAAGCTGCAGTGACCACCCACGTGCCGTGCGGAGTCACCTAGTGCAG
  binding signal: 6660 fluorescence intensity (a.u.)
GCGCAGGACGTGGGCGGTGGAGTCCCGGGGATACGTGTAGCGGAGTCACCTAGTGCAG
  binding signal: 4130 fluorescence intensity (a.u.)
ACAAGCCACGTAGGCGCCACGTCAGCCAAAACCGCCTTCACGGAGTCACCTAGTGCAG
  binding signal: 44100 fluorescence intensity (a.u.)

The list continues:

Sequence | binding signal
GATTCCTTTTCGAATATTTACGTGTACATAACAAATTCCTCGGAGTCACCTAGTGCAG | 3910 fluorescence intensity (a.u.)
AGAGCAAATTCTCTGATTCATCTCGCACGTAACGTAACGTCGGAGTCACCTAGTGCAG | 3330 fluorescence intensity (a.u.)
GACCAGAGTTCAGTTCACCGCTGACTGACATAAATAAATGCGGAGTCACCTAGTGCAG | 3530 fluorescence intensity (a.u.)
TCCAGATCTTGGCGCCGCCGGATCCCGTCAGTCTCCACAACGGAGTCACCTAGTGCAG | 48300 fluorescence intensity (a.u.)
AAGGCTCCTCACCTCCTTGGGATCTTGTGCTTGGGCGCGTCGGAGTCACCTAGTGCAG | 17900 fluorescence intensity (a.u.)
CACTCTAAGCCAAATGCCCCAGTTGGAGCAAGGTATTCACCGGAGTCACCTAGTGCAG | 3840 fluorescence intensity (a.u.)
TTCCTCAATCTCCAAGCCTCGATATCCGTGTTCTTCTCTGCGGAGTCACCTAGTGCAG | 3660 fluorescence intensity (a.u.)
TTTATATCATATATATCCATTGCAAGCATAGGCCTTTAGCCGGAGTCACCTAGTGCAG | 32400 fluorescence intensity (a.u.)
TTTGAAAATAATACTCCCTCCGTTTCATAATATAAGTGATCGGAGTCACCTAGTGCAG | 3260 fluorescence intensity (a.u.)
CGCTGCGGGGAGTCGGCGCTTCGTCGGAGGCGGCGGGGCGCGGAGTCACCTAGTGCAG | 3230 fluorescence intensity (a.u.)
GTCCACCGTGGACTTCTCCAAGTCCACGTCTTCGTGCGACCGGAGTCACCTAGTGCAG | 4160 fluorescence intensity (a.u.)
ATTGCAATGGAGTGTGGTGACGAGATGCCCACTGGTGACACGGAGTCACCTAGTGCAG | 3750 fluorescence intensity (a.u.)
TTCATCCTGGTGAAACTCGTCAGCGTCGTTTCCAAGTCCTCGGAGTCACCTAGTGCAG | 6150 fluorescence intensity (a.u.)
AATTAGGCTCAATAGATTCGTGTCGCGAATTAGTCCAAGACGGAGTCACCTAGTGCAG | 3250 fluorescence intensity (a.u.)
AGGGCGGCGGTGGCGGCACTGGCCTGGCAGGGGTGGGAGTCGGAGTCACCTAGTGCAG | 3670 fluorescence intensity (a.u.)
TAATTGTATTGGGTGCATACATTATATTTATTAGGGTGATCGGAGTCACCTAGTGCAG | 26800 fluorescence intensity (a.u.)
CGAGGGAGTGGAGCAGGTTGGGACGCGTACTGACGTGAGACGGAGTCACCTAGTGCAG | 36100 fluorescence intensity (a.u.)
AGGATAACCTCATCACTTTGGACTGGAGGGAGTACTTAGACGGAGTCACCTAGTGCAG | 23500 fluorescence intensity (a.u.)
GCCGCACCGGTCGGTTTCAGCGCGTGTGACACGCAGATTCCGGAGTCACCTAGTGCAG | 3500 fluorescence intensity (a.u.)
AATTCAATGTGCGACGGTGACGACATGAGTGATAGGACTACGGAGTCACCTAGTGCAG | 3590 fluorescence intensity (a.u.)
AGAAGAGAATGGAGTGGAGCTGACATGTGGGCTCCACCATCGGAGTCACCTAGTGCAG | 3950 fluorescence intensity (a.u.)
